The results in this text go back to paper PMC11369598.

Results are given in words; binding and its absence hold for the method and conditions named. Binding seen in cells or lysates may run through a third protein. Some binding calls cover weakened binding; strength is not graded here. Tags and fused reporters may be left off the sequences shown.

For this test, the target named is T1, KLHL6 wild type, C-terminal Strep-HA tag (KLHL6-strHA) (human) (UniProt Q8WZ60).
T1 sequence: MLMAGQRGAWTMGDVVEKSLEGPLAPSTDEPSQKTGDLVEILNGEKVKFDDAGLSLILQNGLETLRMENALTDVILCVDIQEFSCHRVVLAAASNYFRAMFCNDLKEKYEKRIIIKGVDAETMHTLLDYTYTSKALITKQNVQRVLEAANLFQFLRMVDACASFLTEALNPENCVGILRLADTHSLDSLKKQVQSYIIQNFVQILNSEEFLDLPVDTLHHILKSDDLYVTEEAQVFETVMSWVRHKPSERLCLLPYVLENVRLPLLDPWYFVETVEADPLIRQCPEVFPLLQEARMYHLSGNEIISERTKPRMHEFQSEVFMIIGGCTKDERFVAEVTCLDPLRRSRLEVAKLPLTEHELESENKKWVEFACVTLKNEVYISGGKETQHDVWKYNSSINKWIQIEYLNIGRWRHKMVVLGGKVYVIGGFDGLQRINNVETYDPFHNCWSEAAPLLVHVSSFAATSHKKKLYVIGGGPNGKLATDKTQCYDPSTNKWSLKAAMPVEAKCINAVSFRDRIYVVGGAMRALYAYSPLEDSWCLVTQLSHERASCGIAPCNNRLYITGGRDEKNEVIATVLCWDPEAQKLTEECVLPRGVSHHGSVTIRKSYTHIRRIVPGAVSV
In words: pull-down; SuDHL4 cells transduced with Strep-tagged WT and mutant KLHL6 or EmGFP; eluate purified for Strep-tag; Western blot with HA antibody (bait) and KLHL6 antibody (bait and prey). (Immunoblotting shows a protein as a band on a membrane.)

B1: endogenous KLHL6 (protein, UniProt Q8WZ60 1-621)
chain: T1 sequence
As for B1, the binding result is recorded as “binds”.
